Data as given in PubChem BioAssay AID743454 (Peter MacCallum Cancer Centre, 2014).

Screen: 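Knock-downs lowering viability or raising caspase 3/7 activity in vorinostat-treated resistant cells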 (primary screen)
Cells: human HCT116-VR colon cancer cells, selected for vorinostat resistance
Reagent: siRNA pool against human genes, 40 nM siRNA pool
Timing: vorinostat for 24 h, read-out about 72 h after transfection
Conditions: vorinostat at 2.5 µM final
Detection: 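Cell viability by CellTiter-Fluor and caspase 3/7 activity by luminescence, each scaled to mock wells per plate, duplicates averaged, then robust z-scored over all plates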
Reading the numbers: viability robust z-score: higher = more viable cells than screen typical; caspase robust z-score: higher = more caspase 3/7 activity than screen typical
Call rule: 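Hits are knock-downs in viability class RV1/RV2 or caspase class CA1/CA2, excluding ones that killed cells in the no-drug cell-count arm; hits then retested with single siRNAs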
In all, the deposit lists about 18,000 reagents; shown is a random part of them. Over the whole deposit, 450 (2.5%) are marked active. 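Single biological run; no consistent viability z cut-off exists, so the class columns, not z-scores, define the calls.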

| Target gene | viability hit class | caspase hit class | viability robust z-score | caspase robust z-score | outcome |
| --- | --- | --- | --- | --- | --- |
| TPR (GeneID 7175) | no change | no change | -0.1 | 3.14 | inactive |
| FNTB (GeneID 2342) | no change | no change | -0.77 | -0.08 | inactive |
| ZBTB49 (GeneID 166793) | no change | no change | 1.23 | -0.71 | inactive |
| OTUD6B (GeneID 51633) | no change | no change | -0.12 | -0.97 | inactive |
| POU5F1 (GeneID 5460) | no change | no change | 1.01 | 1.07 | inactive |
| NAXE (GeneID 128240) | no change | no change | 0.3 | -0.72 | inactive |
| ZNF174 (GeneID 7727) | no change | no change | 0.69 | -0.28 | inactive |
| PLAC8 (GeneID 51316) | no change | no change | -0.21 | 0.02 | inactive |

4 entries from above, reduced to “caspase hit class”:
POU5F1 (GeneID 5460) = no change
NAXE (GeneID 128240) = no change
ZNF174 (GeneID 7727) = no change
PLAC8 (GeneID 51316) = no change

The list goes on.
| Target gene | viability hit class | caspase hit class | viability robust z-score | caspase robust z-score | outcome |
| --- | --- | --- | --- | --- | --- |
| IKBKG (GeneID 8517) | no change | no change | 1.04 | 0.04 | inactive |
| KRTAP2-4 (GeneID 85294) | no change | no change | -1.18 | 0.34 | inactive |
| TCIRG1 (GeneID 10312) | no change | no change | -1.96 | -1.12 | inactive |
| ZNF846 (GeneID 162993) | no change | no change | 1.5 | 0.43 | inactive |
| TRIM58 (GeneID 25893) | no change | no change | -0.05 | -0.57 | inactive |
| ATP6V0A1 (GeneID 535) | no change | no change | 0.92 | 0.16 | inactive |
| RMND5A (GeneID 64795) | no change | no change | -0.77 | -1.13 | inactive |
| MAB21L4 (GeneID 79919) | no change | no change | 0.86 | 3.46 | inactive |
| NRN1L (GeneID 123904) | no change | no change | 0.01 | 0.13 | inactive |
| FPR1 (GeneID 2357) | no change | no change | -0.04 | -0.22 | inactive |
| SLC71A1 (GeneID 64645) | no change | no change | 1.1 | 0.32 | inactive |
| TREH (GeneID 11181) | no change | no change | -1.14 | 1.9 | inactive |
| TCF7L2 (GeneID 6934) | no change | no change | 0.88 | -0.22 | inactive |
| ANGPTL6 (GeneID 83854) | no change | no change | 0.38 | -0.53 | inactive |
| PHPT1 (GeneID 29085) | no change | no change | 0.81 | 0.9 | inactive |
